Test results taken from PMC3808306.
No constants are given. Whether binding was seen depends on the method and setting. Binding seen in cells or lysates may run through a third protein. Binding calls can cover weak binding; strength is not graded here.

Biological target: GaBLT-GFP (full-length GaBLT coding region fused to GFP), expressed in transgenic callus (Gossypium arboreum) (UniProt I3QNV5)
Test: co-IP; extracts of 35S::STI+35S::GaBLT-GFP transgenic callus; immunoprecipitated with anti-GFP antibody and protein G-agarose; STI detected by western blot with anti-STI antibody; pre-immune serum (IgG) as control

binding: binds
B1: Arabidopsis STICHEL (STI), expressed in transgenic callus (protein, UniProt O64728 1-1218)
chain: MSGSRVSDLSKLHLKKELTQIRKAGRVLRDPGTTSSWKSPLDSSRSVALLETPASRNGGSSSQFPIRGESSTNRRGKEKKVFLYNWKTQKSSSEKSGLAKNGKEEEEEEEDASSWTQASVNDDDDVSDARNGGDSYRREIQSASMGFRCRDTNLASQGVSKMRKSNVGSCKKKSKKKISSSRLDCLSKYQPRDDIVARNCNAGSDDTEEELSNSEDLRKVTGASPLLLKLKQKNWSRSSSRLLRANNRKEDSSCTYNSTPALSTSSYNMYAVRNPSTVGSWDGTTTSVNDGDDELDDNLDLPGRQGCGIPCYWTKKAMKHRGGCRSCCSPSFSDTLRRTGSSILCGSQSVYRRHNRHSSGGYSKQKIACRSAQGVLPLLSYGGDGRGGSSLGTGLSDDELSTNYGELDLEAQSRLDGRRWSTSYRSQDGLEAVALDGEEEEGSTPETIRSFSQKYRPMFFEELIGQSIVVQSLMNAVKRSRIAPVYLFQGPRGTGKTSTARIFSAALNCVATEEMKPCGYCKECNDFMSGKSKDFWELDGANKKGADKVRYLLKNLPTILPRNSSMYKVFVIDECHLLPSKTWLSFLKFLENPLQKVVFIFITTDLENVPRTIQSRCQKFLFDKLKDSDIVVRLKKIASDENLDVDLHALDLIAMNADGSLRDAETMLEQLSLLGKRITTALVNELVGVVSDEKLLELLELALSSDTAETVKRARELLDLGADPIVLMSQLASLIMDIIAGTYKVVDEKYSNAFFDGRNLTEADMEGLKHALKLLSEAEKQLRVSNDRSTWFTATLLQLGSMPSPGTTHTGSSRRQSSRATDDDPASVSREVMAYKQRIGGLHFSKSASPASVIKRNGNHSHEAKPFSRVIDNNCYKSSSSSQMIESEGSIASHENSIASTMMLNQRSSEKLNDIWRKCIERCHSKTLRQLLYTHGKLISISEVEGILVAYIAFGENDIKLRAERFLSSITNSIEMVLRRSVEVRIILLPETELLVVPHQTRKPEMTNKSGHLNNIAGLNAETDVEVGSSVESRSKLPMQRIESIIREQRLETAWLQTADKDTPGSIIRVKPERNQILPQEDTYRQTNVASAISSSGLTTHQWVDELNNEVKLLKIGDNGELQENLTGTRGQHCPLSPSLLHDTNFGNNKDNLGGYESGSGRVGCNILFCWNTKKTQRRSKSKQVKGTPVRSRRNRKSRFSLFNGCAKPRKAEGNIRR
